The results in this text go back to publication PMC12803952.

By UniProt entry, the sequences of proteins in these tests, tags left out. Where a name states a change or a piece, a line headed by the entry shows the natural chain unless it says otherwise.
UniProt O75330: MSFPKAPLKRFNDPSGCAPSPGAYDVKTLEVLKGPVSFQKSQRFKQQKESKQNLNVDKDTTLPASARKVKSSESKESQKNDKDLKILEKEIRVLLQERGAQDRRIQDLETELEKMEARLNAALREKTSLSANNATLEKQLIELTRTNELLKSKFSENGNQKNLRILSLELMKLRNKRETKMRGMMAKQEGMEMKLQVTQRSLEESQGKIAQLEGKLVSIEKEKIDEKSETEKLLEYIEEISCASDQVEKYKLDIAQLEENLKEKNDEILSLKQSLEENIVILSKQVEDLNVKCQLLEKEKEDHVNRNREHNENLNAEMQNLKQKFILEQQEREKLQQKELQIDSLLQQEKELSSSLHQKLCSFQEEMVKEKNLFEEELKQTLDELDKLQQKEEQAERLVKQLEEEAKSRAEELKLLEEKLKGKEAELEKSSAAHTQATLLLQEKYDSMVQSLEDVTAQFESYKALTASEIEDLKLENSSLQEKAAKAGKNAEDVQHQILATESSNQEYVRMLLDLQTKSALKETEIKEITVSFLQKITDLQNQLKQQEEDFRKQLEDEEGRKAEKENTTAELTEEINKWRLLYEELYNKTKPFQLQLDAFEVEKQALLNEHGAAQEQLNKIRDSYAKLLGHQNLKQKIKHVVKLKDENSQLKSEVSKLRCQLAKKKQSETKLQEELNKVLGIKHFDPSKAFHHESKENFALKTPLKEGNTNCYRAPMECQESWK

These are yes or no findings as the source states them, for the method shown. Binding seen in cells or lysates may run through a third protein.

This experiment has as its target HMMR^L373A,F374A-GFP (human) (UniProt O75330). In words: co-IP; GFP nanobody on Sepharose, IP of HMMR-GFP variants restored in HMMR−/− U2OS cells, asynchronous or mitotic (STLC 5 μM, 16 h); western blot. Background: In western blotting, separated proteins are transferred to a membrane and probed.

B1: Scaffold Anchor of CK1 (SACK1) domain-containing protein D (protein, UniProt Q9H4H8 1-585)
chain: MALLSEGLDEVPAACLSPCGPPNPTELFSESRRLALEELVAGGPEAFAAFLRRERLARFLNPDEVHAILRAAERPGEEGAAAAAAAEDSFGSSHDCSSGTYFPEQSDLEPPLLELGWPAFYQGAYRGATRVETHFQPRGAGEGGPYGCKDALRQQLRSAREVIAVVMDVFTDIDIFRDLQEICRKQGVAVYILLDQALLSQFLDMCMDLKVHPEQEKLMTVRTITGNIYYARSGTKIIGKVHEKFTLIDGIRVATGSYSFTWTDGKLNSSNLVILSGQVVEHFDLEFRILYAQSKPISPKLLSHFQSSNKFDHLTNRKPQSKELTLGNLLRMRLARLSSTPRKADLDPEMPAEGKAERKPHDCESSTVSEEDYFSSHRDELQSRKAIDAATQTEPGEEMPGLSVSEVGTQTSITTACAGTQTAVITRIASSQTTIWSRSTTTQTDMDENILFPRGTQSTEGSPVSKMSVSRSSSLKSSSSVSSQGSVASSTGSPASIRTTDFHNPGYPKYLGTPHLELYLSDSLRNLNKERQFHFAGIRSRLNHMLAMLSRRTLFTENHLGLHSGNFSRVNLLAVRDVALYPSYQ
On to B1, for which the binding result is on record as “no binding”.
